# The list shows a part of the results. Entries with a potency or affinity are not part of this list. Where no call is shown, the source marks the result inconclusive.
# Assay: Polyglutamine toxicity reduction dose response, whole organism Drosophila SCA1 model (AID 1595)
# Conditions: at 1 µM, stronger effect = higher value
row,SMILES,suppression of toxicity
1,CC(C(=O)O)c1cccc(Oc2ccccc2)c1 (stereo not given),1.43
2,CCCCC(CC)CN1CN(CC(CC)CCCC)CC(C)(N)C1 (stereo not given),8.57
3,Cc1oncc1C(=O)Nc1ccc(C(F)(F)F)cc1,1.43
4,Nc1ccc(N=Nc2ccccc2)c(N)n1,1.43
5,CO[C@@]12[C@@H]3NC3CN1C1=C(C(=O)C(N)=C(C)C1=O)[C@@H]2COC(N)=O (stereo not given in full),0
6,O=c1cc(-c2ccccc2)oc2c(O)c(O)ccc12,1.43
7,Nc1ccc(S(N)(=O)=O)cc1,7.14
8,CN(C)C(=O)Oc1ccc[n+](C)c1,1.43
9,O=C1CCC(N2C(=O)c3ccccc3C2=O)C(=O)N1 (stereo not given),12.9
10,N=C(N)N,0
11,CC(=O)OC/C=C(C)/C=C/C=C(C)/C=C/C1=C(C)CCCC1(C)C,1.43
12,O=C(O)c1ccc(S(=O)(=O)N(Cl)Cl)cc1,25.7
13,O=c1n(CCCN2CCN(c3cccc(Cl)c3)CC2)nc2ccccn12,1.43
14,CN1C(C(=O)Nc2ccccn2)=C(O)c2sccc2S1(=O)=O,2.85
15,C[C@]12C=CC(=O)C=C1CCC1C2[C@@H](O)C[C@@]2(C)C1CC[C@]2(O)C(=O)CO (stereo not given in full),1.43
16,O=C(O)CCC(=O)OC[C@@H](NC(=O)C(Cl)Cl)[C@H](O)c1ccc([N+](=O)[O-])cc1,10
17,Cc1ccc(O)cc1,1.43
18,CO[C@H]1/C=C/O[C@@]2(C)Oc3c(C)c(O)c4c(O)c(c(C=NN5CCN(C)CC5)c(O)c4c3C2=O)NC(=O)/C(C)=C\C=C\C(C)[C@H](O)[C@@H](C)[C@@H](O)[C@@H](C)[C@@H](OC(C)=O)[C@@H]1C (stereo not given in full),0
19,Cc1cc(C(C)(C)CC(C)(C)C)ccc1OCCOCC[N+](C)(C)Cc1ccccc1,0
20,CC(C)(C)c1ccc(C(O)CCCN2CCC(C(O)(c3ccccc3)c3ccccc3)CC2)cc1 (stereo not given),0

row,SMILES,suppression of toxicity
1,O=C(O)CCC(=O)Nc1ccc(S(=O)(=O)Nc2nccs2)cc1,0
2,CCCCCCCCCCCCCCCCCC(=O)OC(CC(=O)O)C[N+](C)(C)C (stereo not given),5.71
3,CC12CCC3C(=CCc4cc(O)ccc43)C1CCC2=O (stereo not given),7.14
4,C=C[C@@]1(C)CC(=O)[C@@]2(O)[C@](C)(O1)[C@@H](OC(C)=O)[C@@H](O)C1C(C)(C)CC[C@H](O)[C@@]12C (stereo not given in full),11.4
5,N=c1nc(N2CCCCC2)cc(N)n1O,14.3
6,O[N+]1=CC=CCC1=S.On1ccccc1=S.[Zn],7.14
7,CCN1CCCC1CNC(=O)c1cc(S(N)(=O)=O)ccc1OC (stereo not given),10
8,CC(=O)OCC(=O)[C@@]1(O)[C@H](OC(C)=O)CC2C3CCC4=CC(=O)C=C[C@]4(C)[C@@]3(F)[C@@H](O)C[C@@]21C (stereo not given in full),11.4
9,O=C(O)CCC(=O)c1ccc(-c2ccccc2)cc1,0
10,CCCOc1ccccc1-c1nc2n[nH]nc2c(=O)[nH]1,0
11,Cn1cnc([N+](=O)[O-])c1Sc1ncnc2nc[nH]c12,1.43
12,O=S(=O)(O)CCS,0
13,CC(C)(Oc1ccc(CCNC(=O)c2ccc(Cl)cc2)cc1)C(=O)O,5.71
14,CC1(C)S[C@@H]2[C@H](NC(=O)C(C(=O)O)c3ccccc3)C(=O)N2[C@H]1C(=O)O (stereo not given in full),0
15,CN(C)c1ccc(C(=C2C=CC(=[N+](C)C)C=C2)c2ccc(N(C)C)cc2)cc1,1.43
16,Nc1ccc(C(=O)O)cc1,2.85
17,C[C@@H]1CC2C3C[C@H](F)C4=CC(=O)C=C[C@]4(C)[C@@]3(F)[C@@H](O)C[C@]2(C)[C@@]1(O)C(=O)CO (stereo not given in full),0
18,CCc1cccc2c3c([nH]c12)C(CC)(CC(=O)O)OCC3 (stereo not given),0
19,CN/C(=C\[N+](=O)[O-])NCCSCc1ccc(CN(C)C)o1,0
20,CN(C)CCCO[C@H]1[C@@H](C(O)CO)OC2OC(C)(C)O[C@@H]21 (stereo not given in full),1.43

# Assay: PubChem AID 1597
# Conditions: Drosophila SCA1 polyglutamine model, at 1 µM, stronger effect = higher value
row,SMILES,suppression of toxicity
1,CC(C(=O)O)c1cccc(Oc2ccccc2)c1 (stereo not given),2.15
2,CCCCC(CC)CN1CN(CC(CC)CCCC)CC(C)(N)C1 (stereo not given),11.4
3,Cc1oncc1C(=O)Nc1ccc(C(F)(F)F)cc1,4.29
4,Nc1ccc(N=Nc2ccccc2)c(N)n1,10.7
5,CO[C@@]12[C@@H]3NC3CN1C1=C(C(=O)C(N)=C(C)C1=O)[C@@H]2COC(N)=O (stereo not given in full),0.715
6,O=c1cc(-c2ccccc2)oc2c(O)c(O)ccc12,7.14
7,Nc1ccc(S(N)(=O)=O)cc1,10
8,CN(C)C(=O)Oc1ccc[n+](C)c1,5.71
9,O=C1CCC(N2C(=O)c3ccccc3C2=O)C(=O)N1 (stereo not given),13.6
10,N=C(N)N,3.58
11,CC(=O)OC/C=C(C)/C=C/C=C(C)/C=C/C1=C(C)CCCC1(C)C,11.4
12,O=C(O)c1ccc(S(=O)(=O)N(Cl)Cl)cc1,8.57
13,O=c1n(CCCN2CCN(c3cccc(Cl)c3)CC2)nc2ccccn12,4.29
14,CN1C(C(=O)Nc2ccccn2)=C(O)c2sccc2S1(=O)=O,9.29
15,C[C@]12C=CC(=O)C=C1CCC1C2[C@@H](O)C[C@@]2(C)C1CC[C@]2(O)C(=O)CO (stereo not given in full),10
16,O=C(O)CCC(=O)OC[C@@H](NC(=O)C(Cl)Cl)[C@H](O)c1ccc([N+](=O)[O-])cc1,2.15
17,Cc1ccc(O)cc1,2.87
18,CO[C@H]1/C=C/O[C@@]2(C)Oc3c(C)c(O)c4c(O)c(c(C=NN5CCN(C)CC5)c(O)c4c3C2=O)NC(=O)/C(C)=C\C=C\C(C)[C@H](O)[C@@H](C)[C@@H](O)[C@@H](C)[C@@H](OC(C)=O)[C@@H]1C (stereo not given in full),0.715
19,Cc1cc(C(C)(C)CC(C)(C)C)ccc1OCCOCC[N+](C)(C)Cc1ccccc1,0
20,CC(C)(C)c1ccc(C(O)CCCN2CCC(C(O)(c3ccccc3)c3ccccc3)CC2)cc1 (stereo not given),1.43

row,SMILES,suppression of toxicity
1,O=C(O)CCC(=O)Nc1ccc(S(=O)(=O)Nc2nccs2)cc1,0
2,CCCCCCCCCCCCCCCCCC(=O)OC(CC(=O)O)C[N+](C)(C)C (stereo not given),5
3,CC12CCC3C(=CCc4cc(O)ccc43)C1CCC2=O (stereo not given),10
4,C=C[C@@]1(C)CC(=O)[C@@]2(O)[C@](C)(O1)[C@@H](OC(C)=O)[C@@H](O)C1C(C)(C)CC[C@H](O)[C@@]12C (stereo not given in full),8.57
5,N=c1nc(N2CCCCC2)cc(N)n1O,15
6,O[N+]1=CC=CCC1=S.On1ccccc1=S.[Zn],4.29
7,CCN1CCCC1CNC(=O)c1cc(S(N)(=O)=O)ccc1OC (stereo not given),10
8,CC(=O)OCC(=O)[C@@]1(O)[C@H](OC(C)=O)CC2C3CCC4=CC(=O)C=C[C@]4(C)[C@@]3(F)[C@@H](O)C[C@@]21C (stereo not given in full),2.15
9,O=C(O)CCC(=O)c1ccc(-c2ccccc2)cc1,2.85
10,CCCOc1ccccc1-c1nc2n[nH]nc2c(=O)[nH]1,2.15
11,Cn1cnc([N+](=O)[O-])c1Sc1ncnc2nc[nH]c12,7.86
12,O=S(=O)(O)CCS,0.715
13,CC(C)(Oc1ccc(CCNC(=O)c2ccc(Cl)cc2)cc1)C(=O)O,6.43
14,CC1(C)S[C@@H]2[C@H](NC(=O)C(C(=O)O)c3ccccc3)C(=O)N2[C@H]1C(=O)O (stereo not given in full),3.58
15,CN(C)c1ccc(C(=C2C=CC(=[N+](C)C)C=C2)c2ccc(N(C)C)cc2)cc1,9.29
16,Nc1ccc(C(=O)O)cc1,17.1
17,C[C@@H]1CC2C3C[C@H](F)C4=CC(=O)C=C[C@]4(C)[C@@]3(F)[C@@H](O)C[C@]2(C)[C@@]1(O)C(=O)CO (stereo not given in full),5
18,CCc1cccc2c3c([nH]c12)C(CC)(CC(=O)O)OCC3 (stereo not given),0.715
19,CN/C(=C\[N+](=O)[O-])NCCSCc1ccc(CN(C)C)o1,0
20,CN(C)CCCO[C@H]1[C@@H](C(O)CO)OC2OC(C)(C)O[C@@H]21 (stereo not given in full),7.14

# Source: PubChem BioAssay
